Results as given in article doi:10.1101/2023.06.27.546651.
No constants are given. Whether binding was seen depends on the method and setting. Some entries that bind do so weakly or less than the wild type. Sequences can lack the tags named with a protein.

Chains of the proteins cited; added tags and fusions are not shown.
UniProt Q01094: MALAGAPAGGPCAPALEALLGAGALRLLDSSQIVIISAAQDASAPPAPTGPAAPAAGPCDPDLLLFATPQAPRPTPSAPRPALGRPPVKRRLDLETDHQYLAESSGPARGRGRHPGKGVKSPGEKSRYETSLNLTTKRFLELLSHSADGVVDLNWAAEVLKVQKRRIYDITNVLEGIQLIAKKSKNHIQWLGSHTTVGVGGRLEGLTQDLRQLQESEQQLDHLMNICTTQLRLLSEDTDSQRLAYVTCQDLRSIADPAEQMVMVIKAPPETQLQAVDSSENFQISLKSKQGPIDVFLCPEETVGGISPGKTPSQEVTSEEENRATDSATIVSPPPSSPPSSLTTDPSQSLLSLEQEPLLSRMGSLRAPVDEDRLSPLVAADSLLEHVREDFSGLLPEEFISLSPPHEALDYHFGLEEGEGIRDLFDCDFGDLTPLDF

Target: recombinant His-SUMO-E2F1 (UniProt Q01094)
Test: ELISA

binding: binds
B1: recombinant glutathione S-transferase (GST) tagged SETD6 (enzyme, UniProt Q8TBK2 1-473)
chain: MATQAKRPRVAGPVDGGDLDPVACFLSWCRRVGLELSPKVSERAGGRRTRGGARAALTSPPAQVAVSRQGTVAGYGMVARESVQAGELLFVVPRAALLSQHTCSIGGLLERERVALQSQSGWVPLLLALLHELQAPASRWRPYFALWPELGRLEHPMFWPEEERRCLLQGTGVPEAVEKDLANIRSEYQSIVLPFMEAHPDLFSLRVRSLELYHQLVALVMAYSFQEPLEEEEDEKEPNSPVMVPAADILNHLANHNANLEYSANCLRMVATQPIPKGHEIFNTYGQMANWQLIHMYGFVEPYPDNTDDTADIQMVTVREAALQGTKTEAERHLVYERWDFLCKLEMVGEEGAFVIGREEVLTEEELTTTLKVLCMPAEEFRELKDQDGGGDDKREEGSLTITNIPKLKASWRQLLQNSVLLTLQTYATDLKTDQGLLSNKEVYAKLSWREQQALQVRYGQKMILHQLLELTS
